Earlier results, collected in patent US20230345984A1, “SWEETENERS” (Sweegen, Inc, priority 2022, published 2023).
At least one structure is not confirmed: it was looked up by name or label, or the drawing left a doubt.

How the values were obtained:
[1] = cited from earlier work
[2] = cited from earlier work; remark: listed apart in the source

SMILES	Times sweeter than sucrose [1]	Concentration above which bitterness is perceptible [2]
C=C1C[C@@]23CC[C@H]4[C@@](C)(CCC[C@@]4(C)C(=O)O[C@@H]4O[C@H](CO)[C@@H](O)[C@H](O)[C@H]4O)[C@@H]2CC[C@]1(O[C@@H]1O[C@H](CO)[C@@H](O)[C@H](O)[C@H]1O[C@@H]1O[C@@H](C)[C@H](O)[C@@H](O)[C@H]1O)C3 [Dulcoside A]	about 30 times	
C=C1C[C@@]23CC[C@H]4[C@@](C)(CCC[C@@]4(C)C(=O)O[C@@H]4O[C@H](CO)[C@@H](O)[C@H](O)[C@H]4O)[C@@H]2CC[C@]1(O[C@@H]1O[C@H](CO)[C@@H](O)[C@H](O[C@@H]2O[C@H](CO)[C@@H](O)[C@H](O)[C@H]2O)[C@H]1O[C@@H]1O[C@H](CO)[C@@H](O)[C@H](O)[C@H]1O)C3 [Reb A, rebaudioside A]		above 200 ppm
